Measurements as given in US20180231562A1.
These are yes or no findings as the source states them, for the method shown. In cells and extracts the contact can be indirect. Some entries that bind do so weakly or less than the wild type.

Protein sequences, listed by entry. Tags and fused reporters are not part of them. Residues count along the entry.
UniProt P20333, residues 23-461: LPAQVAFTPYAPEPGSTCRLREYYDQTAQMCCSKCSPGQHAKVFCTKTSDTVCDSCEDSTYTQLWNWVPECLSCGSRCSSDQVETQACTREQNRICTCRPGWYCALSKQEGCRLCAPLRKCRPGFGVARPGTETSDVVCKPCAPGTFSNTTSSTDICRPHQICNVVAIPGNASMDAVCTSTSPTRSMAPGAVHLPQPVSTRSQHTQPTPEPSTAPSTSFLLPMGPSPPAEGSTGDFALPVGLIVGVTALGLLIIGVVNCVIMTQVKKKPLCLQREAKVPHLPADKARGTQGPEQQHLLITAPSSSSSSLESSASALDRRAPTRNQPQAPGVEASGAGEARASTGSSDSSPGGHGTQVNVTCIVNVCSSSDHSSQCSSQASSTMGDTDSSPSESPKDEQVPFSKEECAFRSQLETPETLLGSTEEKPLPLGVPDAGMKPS

Tests used:
[1] = target: TNFR2 on PHA-L and IL-2 expanded primary human T cells (human) (UniProt P20333); assay: co-immunoprecipitation with anti-TNFR2 from lysates of human T cells mixed with NS0-mTNF cells; TRAF-2 immunoblot
[2] = target: TNFR2 on PHA-L and IL-2 expanded primary human T cells (human) (UniProt P20333); assay: co-immunoprecipitation with anti-TNFR2 from lysates of human T cells mixed with compound-loaded NS0-mTNF cells; TRAF-2 immunoblot
[3] = target: TNFR2 on PHA-L and IL-2 expanded primary human T cells (human) (UniProt P20333); assay: Co-immunoprecipitation: TNFR2 pulled from lysates of T cells mixed with NS0 cells (polyclonal goat anti-human TNFR2, protein G sepharose), SDS-PAGE, immunoblot with anti-TRAF-2

Measured: binding

B1: TRAF-2 (protein, UniProt Q12933 2-501, looked up)
chain: AAASVTPPGSLELLQPGFSKTLLGTKLEAKYLCSACRNVLRRPFQAQCGHRYCSFCLASILSSGPQNCAACVHEGIYEEGISILESSSAFPDNAARREVESLPAVCPSDGCTWKGTLKEYESCHEGRCPLMLTECPACKGLVRLGEKERHLEHECPERSLSCRHCRAPCCGADVKAHHEVCPKFPLTCDGCGKKKIPREKFQDHVKTCGKCRVPCRFHAIGCLETVEGEKQQEHEVQWLREHLAMLLSSVLEAKPLLGDQSHAGSELLQRCESLEKKTATFENIVCVLNREVERVAMTAEACSRQHRLDQDKIEALSSKVQQLERSIGLKDLAMADLEQKVLEMEASTYDGVFIWKISDFARKRQEAVAGRIPAIFSPAFYTSRYGYKMCLRIYLNGDGTGRGTHLSLFFVVMKGPNDALLRWPFNQKVTLMLLDQNNREHVIDAFRPDVTSSSFQRPVNDMNIASGCPLFCPVSKMEAKNSYVRDDAIFIKAIVDLTGL
binds: all assays above
